Experimental data taken from the supplement of paper PMC6078165.
Values are relative to the signal before dosing, not to a vehicle control; the signal also falls without drug.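 Fibroblast labels denote human fibroblasts, mainly primary ones from uterus (C12385, HUF), lung (H6013), bone (Hs27A), adrenal (HADF) and skin (WS1), plus mammary HMF and breast cancer-associated Hs343T. Cancer cells are basal-like or mesenchymal-like triple-negative breast cancer lines. A hit is a response shift exceeding 3x replicate standard deviation. The tissue of the other fibroblasts is not given here.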

Test system: MDAMB436
Test: relative JC-1 red fluorescence (viability) vs pre-drug, coculture with fibroblast (fraction); higher = more viable cancer cells
Details: 10 µM
Experimental: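 JC-1 labelled TNBC cells cocultured 1:1 (1,500 cells each) with CellTrace Violet stained primary or stromal fibroblasts in 384-well plates in FluoroBrite medium, treated with one of 42 anticancer drugs at 0.1, 1, 10 or 100 uM. JC-1 red fluorescence (mitochondrial integrity in cancer cells only) was read by plate reader every 8 h for 72 h. Values are normalised to each well's pre-drug value. The stock of one drug was tenfold lower, so its dose labels may be too high.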

C=C1C[C@@H]2[C@H](CC[C@]3(C)C(=O)CC[C@@H]23)[C@@]2(C)C=CC(=O)C=C12 [Exemestane]
relative JC-1 red fluorescence
Details | 8 h | 16 h | 24 h | 32 h | 40 h | 48 h | 56 h | 64 h | 72 h
coculture fibroblast: C12385 | 0.8474 | 0.7756 | 0.749 | 0.68 | 0.63 | 0.603 | 0.576 | 0.534 | 0.52
coculture fibroblast: H6013 | 0.891 | 0.836 | 0.801 | 0.805 | 0.777 | 0.784 | 0.748 | 0.718 | 0.67
coculture fibroblast: H6019 | 0.78519 | 0.7075 | 0.7102 | 0.645 | 0.6043 | 0.581 | 0.531 | 0.494 | 0.46
coculture fibroblast: H6076 | 0.784 | 0.66 | 0.646 | 0.609 | 0.594 | 0.585 | 0.582 | 0.572 | 0.564
coculture fibroblast: H6231 | 0.749 | 0.66 | 0.564 | 0.523 | 0.492 | 0.4553 | 0.4321 | 0.4043 | 0.387
coculture fibroblast: HADF | 0.901 | 0.858 | 0.817 | 0.785 | 0.762 | 0.757 | 0.712 | 0.676 | 0.631
coculture fibroblast: HCFa | 0.927 | 0.897 | 0.877 | 0.867 | 0.831 | 0.83 | 0.771 | 0.74 | 0.685
coculture fibroblast: HCPF | 0.817 | 0.746 | 0.648 | 0.606 | 0.568 | 0.519 | 0.479 | 0.461 | 0.434
coculture fibroblast: HHSteC | 0.889 | 0.835 | 0.824 | 0.791 | 0.778 | 0.773 | 0.711 | 0.677 | 0.624
coculture fibroblast: HMF | 0.829 | 0.826 | 0.723 | 0.667 | 0.592 | 0.54 | 0.499 | 0.46731 | 0.442
coculture fibroblast: HPFa | 0.912 | 0.866 | 0.833 | 0.796 | 0.77 | 0.772 | 0.69 | 0.644 | 0.567
coculture fibroblast: HUF | 0.8857 | 0.8121 | 0.7985 | 0.731 | 0.681 | 0.659 | 0.629 | 0.61 | 0.596
coculture fibroblast: Hs5 | 0.8 | 0.716 | 0.652 | 0.59 | 0.562 | 0.517 | 0.507 | 0.469 | 0.454
coculture fibroblast: Hs27A | 0.883 | 0.829 | 0.842 | 0.844 | 0.821 | 0.876 | 0.8 | 0.786 | 0.713
coculture fibroblast: Hs343T | 0.777 | 0.682 | 0.661 | 0.65 | 0.623 | 0.587 | 0.573 | 0.57 | 0.566
coculture fibroblast: WS1 | 0.8342 | 0.74 | 0.727 | 0.662 | 0.622 | 0.596 | 0.562 | 0.51629 | 0.4893
